The list does not hold the whole screen: it gathers tests that were run many times, whatever their T/C, doses with no T/C, and many T/C values between a quarter and a half above the control. Other doses and runs of a compound stand elsewhere. T/C: endpoint of the treated group in % of that of the vehicle group. Some entries give survivors of the animals treated and no T/C: the source holds a T/C of zero for them, seemingly a mark for toxic or unscored doses. Some doses without a T/C left all or most animals alive at the check, yet need not have been tolerated: survival well below the control is almost never listed, so the zero probably covers shortened survival too. Survivors were counted at the toxicity check, usually on the fifth day, unless a day is given; later deaths do not show. Schedules are NCI's codes, taken here to give the interval after Q, in days (D) or hours (H), and the number of doses after X. Some entries were tested several times; the results are listed from low to high. For survival time, the PubChem record calls one and a half times the control and up active, and a quarter to a half above the control has no call in these data; cut-offs in other NCI protocols can differ. Some T/C values carry the count of animals alive at the toxicity check (mostly the fifth day); without a count, all were alive then.
System: P388 leukemia ip, CD2F1 mice, survival T/C
Test: NCI In Vivo Anticancer Drug Screen. Data for tumor model P388 Leukemia (intraperitoneal) in CD2F1 (CDF1) mice
Details: T/C endpoint: median survival time, higher T/C = longer survival
[1] = dose: 50.0 mg/kg/injection, schedule: Q01DX009 (ip), vehicle: saline with Tween-80
[2] = dose: 100.0 mg/kg/injection, schedule: Q01DX009 (ip), vehicle: saline with Tween-80
[3] = dose: 200.0 mg/kg/injection, schedule: Q01DX009 (ip), vehicle: saline with Tween-80
[4] = dose: 400.0 mg/kg/injection, schedule: Q01DX009 (ip), vehicle: saline with Tween-80
[5] = dose: 200.0 mg/kg/injection, schedule: Q01DX005 (ip), vehicle: saline with Tween-80
[6] = dose: 50.0 mg/kg/injection, schedule: Q01DX005 (ip), vehicle: Klucel (hydroxypropylcellulose) (HPC)
[7] = dose: 100.0 mg/kg/injection, schedule: Q01DX005 (ip), vehicle: Klucel (hydroxypropylcellulose) (HPC)
[8] = dose: 200.0 mg/kg/injection, schedule: Q01DX005 (ip), vehicle: Klucel (hydroxypropylcellulose) (HPC)
[9] = dose: 200.0 mg/kg/injection, schedule: Q01DX009 (ip), vehicle: Klucel (hydroxypropylcellulose) (HPC)
[10] = dose: 240.0 mg/kg/injection, schedule: Q01DX005 (ip), vehicle: saline
[11] = dose: 240.0 mg/kg/injection, schedule: Q01DX005 (ip), vehicle: saline with Tween-80

`O=C(c1ccc(Cl)cc1)c1no[n+]([O-])c1C(=O)c1ccc(Cl)cc1` was tested, and the T/C [1] was 142 % of control, the T/C [2] was 125 and 132 % of control and the survivor count [3] was 4 of 6. The survivor count [4] was 4 of 6.

For `COc1cc2c[n+](C)c3c(c2cc1OC)Cc1cc(OS(C)(=O)=O)c(OC)cc1-3`, the T/C (dose: 25.0 mg/kg/injection, schedule: Q01DX005 (ip), vehicle: saline with Tween-80) was 128 % of control, the T/C (dose: 50.0 mg/kg/injection, schedule: Q01DX005 (ip), vehicle: saline with Tween-80) was 136 % of control and the T/C (dose: 100.0 mg/kg/injection, schedule: Q01DX005 (ip), vehicle: saline with Tween-80) was 137 % of control. For the same compound, the T/C [5] was 145 % of control [5 of 6 alive].

For `CC1=CC(=Nc2cc(Cl)c(O)c(Cl)c2)C=CC1=O`, the survivor count (dose: 50.0 mg/kg/injection, schedule: Q01DX005 (ip), vehicle: saline) was 0 of 5, the survivor count (dose: 100.0 mg/kg/injection, schedule: Q01DX005 (ip), vehicle: saline) was 0 of 5 and the survivor count (dose: 200.0 mg/kg/injection, schedule: Q01DX005 (ip), vehicle: saline) was 0 of 5.

With `NC(=O)/C(N=Nc1ccccc1)=N\Nc1ccccc1` the survivor count [6] was 6 of 6, the survivor count [7] was 5 of 6 and the survivor count [8] was 6 of 6.

For `CC(Cl)CN(CC(C)Cl)c1ccc2c(c1)Cc1ccccc1-2` (stereo not drawn), the T/C (dose: 100.0 mg/kg/injection, schedule: Q01DX009 (ip), vehicle: Klucel (hydroxypropylcellulose) (HPC)) was 131 % of control, the T/C [9] was 129 and 146 % of control and the T/C (dose: 400.0 mg/kg/injection, schedule: Q01DX009 (ip), vehicle: Klucel (hydroxypropylcellulose) (HPC)) was 139 and 140 % of control [5 of 6 alive].

`CN(C)C(=O)c1cc(C(=O)N(C)C)cc2cccc-2c1` was tested, and the survivor count (dose: 200.0 mg/kg/injection, schedule: Q04DX002 (ip), vehicle: saline) was 0 of 6 and the survivor count (dose: 400.0 mg/kg/injection, schedule: Q04DX002 (ip), vehicle: saline) was 0 of 6.

For `CNc1ccc(N=Nc2ccncc2C)cc1C`, the survivor count (dose: 1.56 mg/kg/injection, schedule: Q01DX009 (ip), vehicle: DMSO) was 6 of 6, the survivor count (dose: 3.12 mg/kg/injection, schedule: Q01DX009 (ip), vehicle: DMSO) was 6 of 6 and the survivor count (dose: 6.25 mg/kg/injection, schedule: Q01DX009 (ip), vehicle: DMSO) was 6 of 6. The survivor count (dose: 50.0 mg/kg/injection, schedule: Q01DX009 (ip), vehicle: DMSO) was 4 of 6.

In the case of `COC(=O)c1cnc(N)n1C`, the survivor count (dose: 25.0 mg/kg/injection, schedule: Q01DX009 (ip), vehicle: distilled water + Tween-80) is reported as 5 of 5, the survivor count (dose: 50.0 mg/kg/injection, schedule: Q01DX009 (ip), vehicle: distilled water + Tween-80) is reported as 0 of 5 and the survivor count (dose: 100.0 mg/kg/injection, schedule: Q01DX009 (ip), vehicle: distilled water + Tween-80) is reported as 0 of 5. The survivor count (dose: 200.0 mg/kg/injection, schedule: Q01DX009 (ip), vehicle: distilled water + Tween-80) was 0 of 5.

For `CCNc1ccc2ccccc2c1N=Nc1ccc(N=Nc2ccccc2)cc1`, the survivor count [2] was 6 of 6.

`CCCCCCC1(C(=O)OCCN(CC)CC)CCCCC1` was tested, and the survivor count [5] was 1 of 6.

For `Cc1cc(C)n(C2=NCCN2)n1`, the survivor count [10] was 0 of 6.

In the case of `O=[N+]([O-])c1cccc2nc(-c3ccccn3)n(CCc3ccncc3)c12`, the survivor count (dose: 400.0 mg/kg/injection, schedule: Q01DX001 (ip), vehicle: Klucel (hydroxypropylcellulose) (HPC)) is reported as 6 of 6.

In the case of `Cc1c[nH]c2nc(C)n(-c3ccc(Cl)cc3)c(=N)c12`, the survivor count [6] is reported as 3 of 6, the survivor count [7] is reported as 0 of 6 and the survivor count [8] is reported as 0 of 6.

With `COc1cc(C(CC(C)=O)c2cc3c(cc2OC(C)=O)OCO3)cc(OC)c1OC(C)=O` (stereo not drawn) the survivor count [11] was 6 of 6.

In the case of `C=CCNCCN1CCN(CCCN2c3ccccc3Sc3ccc(C(F)(F)F)cc32)CC1`, the T/C (dose: 25.0 mg/kg/injection, schedule: Q04DX003 (ip), vehicle: saline) is reported as 127 % of control and the survivor count (dose: 100.0 mg/kg/injection, schedule: Q04DX003 (ip), vehicle: saline) is reported as 2 of 6 and 4 of 6.

`OC(COc1c2ccccc2nc2ccccc12)CN1CCOCC1` (stereo not drawn) was tested, and the survivor count [5] was 6 of 6.

In the case of `CC(C)(C)[Si](C)(C)OC(=O)Nc1ccc(N(CCCl)CCCl)cc1`, the T/C (dose: 5.0 mg/kg/injection, schedule: Q04DX003 (ip), vehicle: distilled water + Tween-80) is reported as 138 % of control, the T/C (dose: 20.0 mg/kg/injection, schedule: Q04DX003 (ip), vehicle: distilled water + Tween-80) is reported as 139 % of control and the survivor count (dose: 40.0 mg/kg/injection, schedule: Q04DX003 (ip), vehicle: distilled water + Tween-80) is reported as 5 of 6 and 6 of 6. The survivor count (dose: 80.0 mg/kg/injection, schedule: Q04DX003 (ip), vehicle: distilled water + Tween-80) was 2 of 6 and 4 of 6.

`CCOC(=O)C1C(=O)N(C)C(=O)N1c1ccc(C)cc1` (stereo not drawn) was tested, and the survivor count [11] was 6 of 6.

For `O=[N+]([O-])c1ccc(Sc2ccc(Cl)cc2)c2nonc12`, the survivor count [1] was 4 of 6 and the survivor count [2] was 0 of 6.

With `CS(=O)(=O)OCCCl` the T/C [2] was 134 % of control, the T/C (dose: 150.0 mg/kg/injection, schedule: Q01DX005 (ip), vehicle: saline with Tween-80) was 125 and 128 % of control [4 of 6 alive] and the T/C (dose: 150.0 mg/kg/injection, schedule: Q01DX009 (ip), vehicle: saline with Tween-80) was 133 % of control. For the same compound, the survivor count [3] was 1 of 6 and the survivor count (dose: 400.0 mg/kg/injection, schedule: Q01DX001 (ip), vehicle: saline with Tween-80) was 0 of 6.

For `C=C(C)C(C(=O)OCC)C(=O)OCC`, the survivor count [4] was 4 of 6.

For `CN1C2=NCCN2C(=O)c2cc(Cl)ccc21`, the survivor count [9] was 0 of 6.

With `Cc1ccnc(N)c1N` the T/C (dose: 25.0 mg/kg/injection, schedule: Q01DX009 (ip), vehicle: other) was 128 % of control and the survivor count (dose: 50.0 mg/kg/injection, schedule: Q01DX009 (ip), vehicle: other) was 0 of 6.

For `Clc1ccc(OCC(Cn2ccnc2)c2ccc(Cl)cc2)cc1` (stereo not drawn), the survivor count [3] was 3 of 6.

For `CCCC(NC)C(CC)CN` (stereo not drawn), the survivor count [3] was 1 of 6 and the survivor count [4] was 0 of 6.

With `CC(=O)OCC1OC(n2ccc(N)nc2=O)C(OC(C)=O)C1OC(C)=O` (stereo not drawn) the T/C (dose: 50.0 mg/kg/injection, schedule: Q01DX009 (ip), vehicle: saline) was 143 % of control.

For `C=CCc1cccc2cc(C(=O)OCCCN(CC)CC)c(=O)oc12`, the survivor count [5] was 3 of 5.

With `COc1ccc(CC2(C(=O)O)NCCS2)cc1OC` (stereo not drawn) the survivor count (dose: 400.0 mg/kg/injection, schedule: Q04DX003 (ip), vehicle: Klucel (hydroxypropylcellulose) (HPC)) was 3 of 6.

`COc1ccc(C[n+]2ccccc2C#N)cc1OC` was tested, and the survivor count [8] was 0 of 5.

`CC(=O)Nc1ccc(C(=O)C(C)Br)cc1` (stereo not drawn) was tested, and the survivor count [1] was 2 of 6 and 3 of 6, the survivor count [2] was 0 of 6 and the survivor count [3] was 0 of 6.

In the case of `CNC(=O)OCc1c(COC(=O)NC)c2n(c1C)CS(=O)C2` (stereo not drawn), the T/C (dose: 400.0 mg/kg/injection, schedule: Q01DX005 (ip), vehicle: saline with Tween-80) is reported as 125 % of control.

With `CCCCCCCC[N+](C)([O-])CCCCCC[N+](C)([O-])CCCCCCCC` (stereo not drawn) the survivor count (dose: 200.0 mg/kg/injection, schedule: Q01DX009 (ip), vehicle: saline) was 1 of 6.

With `CN(C)CC#CCCCS(=O)(=O)c1ccccc1` the survivor count [10] was 0 of 6.

With `C1CN1c1nnc(N2CC2)nn1` the T/C (dose: 3.75 mg/kg/injection, schedule: Q01DX005 (ip), vehicle: saline) was 144 % of control, the T/C (dose: 7.5 mg/kg/injection, schedule: Q01DX005 (ip), vehicle: saline) was 129 % of control and the survivor count (dose: 30.0 mg/kg/injection, schedule: Q01DX005 (ip), vehicle: saline) was 5 of 6. For the same compound, the survivor count (dose: 60.0 mg/kg/injection, schedule: Q01DX005 (ip), vehicle: saline with Tween-80) was 6 of 6, the survivor count (dose: 120.0 mg/kg/injection, schedule: Q01DX005 (ip), vehicle: saline with Tween-80) was 0 of 6 and the survivor count [11] was 0 of 6.

Reference: PubChem BioAssay AID330 (DTP/NCI, 2004)
